Among the data in patent US20230102840A1, “COMPOSITIONS AND METHODS RELATING TO COMBINATORIAL HYALURONIC ACID CONJUGATES” (PRESIDENT AND FELLOWS OF HARVARD COLLEGE, priority 2020, published 2023) are IC50 values, retold here.

As a reminder, the IC50 is the concentration that gives 50% inhibition.

The structures appear in SMILES notation.

In this test the test system is A431 cells. Nature of the test: In vitro cytotoxicity on A431 cells. The class given is cell-based. The conditions noted are these: Homo sapiens, A-431; 48 h, alamar blue. As to the method: A431 cells were cultured in DMEM media supplemented with 10% FBS, 1% Pen Strep. The cells were passaged 3-4 times prior to setting up the assay. HuT 78 cells were culture in IMDM supplemented with 20% FBS. Cells were cultured in a humidified incubator maintained at 37° C. and 5% C02 (Thermo scientific, USA). A431 Cells (5×10^3 in 100 ul in complete DMEM) were seeded in 96 well plates and allowed to adhere overnight. The next day, cell culture media was aspirated and replaced with the different treatments. The cells were incubated with the drug solutions for 48 hr after which the treatment was aspirated and replaced with 10% alamar blue (AB) solution in complete DMEM and incubated for an additional 3.5 h in the dark at 37° C. Similarly, HUT 78 cells, (5×10^3 cells in 50 ul IMDM) were seeded in U bottom well plates and treatments were added to a final volume of 100 ul in each well. […] Finally, cellular viability was assessed by reading the florescence of the solution from each well at λex=560 nm and λem=590 nm. […] Baseline fluorescence levels from wells without cells were subtracted from each data (Dose response curves were fit to each drug and/or polymer drug conjugate with the median effect model^[28]. For combination treatment, synergy was quantified with the combination index^[29]
Background: The colour change of resazurin is a common sign of viable cells or microbes.

Regarding `O=C(CCCCCCC(=O)Nc1ccccc1)NO` [VOR, Vorinostat], the IC50 stood at 5.46 µM.
